Results are given in words; binding and its absence hold for the method and conditions named. Binding seen in cells or lysates may run through a third protein. Some binding calls cover weakened binding; strength is not graded here. For some assays here: Where a sequence is shown, tags or fusion partners need not be part of it. Blank lines part the entries; values can stand above or below the molecule they belong to.
Columns and labels:
[1] = biological target: PAX7 (wild type, construct of Supplementary Fig. 1) (mouse) (UniProt P47239); test: co-IP; Supplementary Fig. 1 (not shown), listed among the co-immunoprecipitations and immunoblots; WT against K105/K193 mutant PAX7 with CARM1 or ASH2L; set-up not told
[2] = biological target: FLAG-PAX7 (mouse) (UniProt P47239); test: co-IP; C2C12 cells transfected with tagged plasmids, collected 48 h later; Triton lysis buffer (50 mM Tris pH 7.5, 150 mM NaCl, 2 mM MgCl2, 0.5 mM EDTA, 0.5% Triton X-100); primary antibody overnight at 4 °C, Protein A/G magnetic beads 2 h; IP done in both directions; western blot

Sequences of proteins named here, by UniProt entry; tags and fusion partners are left off.
UniProt P47239: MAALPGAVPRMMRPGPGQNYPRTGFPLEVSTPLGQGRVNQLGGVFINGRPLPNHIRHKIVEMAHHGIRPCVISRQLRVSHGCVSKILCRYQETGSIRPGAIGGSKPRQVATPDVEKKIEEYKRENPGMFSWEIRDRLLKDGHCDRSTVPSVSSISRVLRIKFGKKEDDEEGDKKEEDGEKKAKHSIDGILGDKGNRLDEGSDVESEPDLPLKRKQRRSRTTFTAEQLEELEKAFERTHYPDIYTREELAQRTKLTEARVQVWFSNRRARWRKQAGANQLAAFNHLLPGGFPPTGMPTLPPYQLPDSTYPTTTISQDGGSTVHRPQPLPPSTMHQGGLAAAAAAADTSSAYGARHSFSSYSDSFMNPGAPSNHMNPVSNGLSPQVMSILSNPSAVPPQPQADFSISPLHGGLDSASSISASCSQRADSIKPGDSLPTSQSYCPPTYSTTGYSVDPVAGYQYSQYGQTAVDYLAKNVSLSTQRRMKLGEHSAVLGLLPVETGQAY
UniProt Q91X20: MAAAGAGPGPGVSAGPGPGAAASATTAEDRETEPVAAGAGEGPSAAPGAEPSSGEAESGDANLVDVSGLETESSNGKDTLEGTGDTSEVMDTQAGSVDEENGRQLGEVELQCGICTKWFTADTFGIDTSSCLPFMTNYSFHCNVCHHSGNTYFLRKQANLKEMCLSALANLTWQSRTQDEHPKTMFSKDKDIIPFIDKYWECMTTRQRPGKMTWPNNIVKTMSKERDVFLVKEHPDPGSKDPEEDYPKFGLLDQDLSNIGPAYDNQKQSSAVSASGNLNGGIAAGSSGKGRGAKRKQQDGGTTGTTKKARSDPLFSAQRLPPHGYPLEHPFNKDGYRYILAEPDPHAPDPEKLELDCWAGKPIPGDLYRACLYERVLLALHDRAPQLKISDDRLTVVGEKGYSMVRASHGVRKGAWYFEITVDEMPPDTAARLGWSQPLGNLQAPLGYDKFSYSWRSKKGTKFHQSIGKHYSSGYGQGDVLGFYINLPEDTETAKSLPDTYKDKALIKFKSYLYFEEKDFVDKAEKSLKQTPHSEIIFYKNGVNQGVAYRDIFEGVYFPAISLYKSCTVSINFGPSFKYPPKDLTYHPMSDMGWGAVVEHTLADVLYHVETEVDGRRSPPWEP

- binding [1]: binds
Molecule: ASH2L (from UniProt Q91X20 1-623)

- binding [2]: binds
B1: HA-MYST1 (enzyme, UniProt Q9D1P2 1-458)
chain: MAAQGATAAVAATTSGTVGEGEPGPGENAAVEGPARSPGRVSPPTPARGEPEVTVEIGETYLCRRPDSTWHSAEVIQSRVNDQEGREEFYVHYVGFNRRLDEWVDKNRLALTKTVKDAVQKNSEKYLSELAEQPERKITRNQKRKHDEINHVQKTYAEMDPTTAALEKEHEAITKVKYVDKIHIGNYEIDAWYFSPFPEDYGKQPKLWLCEYCLKYMKFEKSYRFHLGQCQWRQPPGKEIYRKSNISVYEVDGKDHKIYCQNLCLLAKLFLDHKTLYFDVEPFVFYILTEVDRQGAHIVGYFSKEKESPDGNNVACILTLPPYQRRGYGKFLIAFSYELSKLESTVGSPEKPLSDLGKLSYRSYWSWVLLEILRDFRGTLSIKDLSQMTSITQNDIISTLQSLNMVKYWKGQHVICVTPKLVEEHLKSAQYKKPPITVDSVCLKWAPPKHKQVKLSKK
